Reference: PMC3108608 (Frontiers in Pharmacology, 2011)

Target: T1, mPGES-1 (Homo sapiens, UniProt O14684)
T1 construct: microsomal preparations of IL-1β-stimulated A549 cells, a rich source of mPGES-1; endogenous in cells; host or cells: A549 cells, IL-1β-stimulated, microsomal fraction
T1 sequence (O14684 1-152): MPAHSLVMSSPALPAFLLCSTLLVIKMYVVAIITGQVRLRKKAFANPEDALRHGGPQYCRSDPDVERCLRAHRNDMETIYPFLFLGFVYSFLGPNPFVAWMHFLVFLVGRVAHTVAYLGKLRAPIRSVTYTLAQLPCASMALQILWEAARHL
Assay: PGE2 synthase activity in microsomes of IL-1β-stimulated A549 cells
Assay type: biochemical

Question: Which “effect of decreasing the PGH2 concentration on potency” value does the source give for CC(C)=CCCC1(C)C(CC=C(C)C)CC2(CC=C(C)C)C(=O)C1(C(=O)C(C)C)C(=O)C(CC=C(C)C)=C2O (centres unmarked) [Hyp, Hyperforin] here?
Answer: Its value is “did not significantly alter the potency”.

Question: What about the inhibition at 10 µM (read-out: inhibition of PGE2 formation (mPGES-1 activity)) of the same molecule?
Answer: Its inhibition at 10 µM is 85 ± 2%.
